From article PMC10605051
These are yes or no findings as the source states them, for the method shown. In cells and extracts the contact can be indirect. Some entries that bind do so weakly or less than the wild type.

Amino acid sequences for entries named in this document (tags omitted).
UniProt Q8N122: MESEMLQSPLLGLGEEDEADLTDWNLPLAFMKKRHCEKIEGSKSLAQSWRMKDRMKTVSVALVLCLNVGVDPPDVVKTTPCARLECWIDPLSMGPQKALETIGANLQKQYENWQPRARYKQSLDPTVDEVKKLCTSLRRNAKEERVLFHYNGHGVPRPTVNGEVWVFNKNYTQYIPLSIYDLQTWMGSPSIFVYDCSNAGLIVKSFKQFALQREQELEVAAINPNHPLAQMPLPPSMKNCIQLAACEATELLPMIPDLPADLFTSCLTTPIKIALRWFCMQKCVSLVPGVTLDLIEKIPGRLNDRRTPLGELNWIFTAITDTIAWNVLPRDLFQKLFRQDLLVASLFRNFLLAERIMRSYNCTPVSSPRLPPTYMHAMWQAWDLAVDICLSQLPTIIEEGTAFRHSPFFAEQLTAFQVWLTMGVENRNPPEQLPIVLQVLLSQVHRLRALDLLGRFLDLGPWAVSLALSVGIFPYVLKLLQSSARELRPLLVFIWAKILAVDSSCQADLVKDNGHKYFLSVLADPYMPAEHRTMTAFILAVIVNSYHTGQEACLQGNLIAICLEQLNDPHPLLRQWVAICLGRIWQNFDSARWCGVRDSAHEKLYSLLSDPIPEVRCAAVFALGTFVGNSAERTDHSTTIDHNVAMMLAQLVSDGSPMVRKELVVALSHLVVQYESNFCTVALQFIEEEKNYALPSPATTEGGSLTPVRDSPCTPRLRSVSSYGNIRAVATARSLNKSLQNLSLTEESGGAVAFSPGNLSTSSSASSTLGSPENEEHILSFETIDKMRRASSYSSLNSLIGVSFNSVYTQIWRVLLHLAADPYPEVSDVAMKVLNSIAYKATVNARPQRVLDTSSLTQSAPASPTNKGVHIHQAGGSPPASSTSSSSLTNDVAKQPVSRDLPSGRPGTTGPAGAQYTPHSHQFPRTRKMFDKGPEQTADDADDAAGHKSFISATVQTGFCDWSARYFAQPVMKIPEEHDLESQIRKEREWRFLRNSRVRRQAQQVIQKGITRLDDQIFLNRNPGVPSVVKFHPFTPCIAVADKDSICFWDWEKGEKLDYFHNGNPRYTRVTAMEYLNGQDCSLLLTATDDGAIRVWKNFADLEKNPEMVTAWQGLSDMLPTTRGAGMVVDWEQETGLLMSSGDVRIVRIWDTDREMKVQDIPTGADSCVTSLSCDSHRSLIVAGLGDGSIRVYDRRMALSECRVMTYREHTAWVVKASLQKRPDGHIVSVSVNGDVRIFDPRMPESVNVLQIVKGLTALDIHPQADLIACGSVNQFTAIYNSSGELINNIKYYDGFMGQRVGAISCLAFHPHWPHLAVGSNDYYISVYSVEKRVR
UniProt Q6R327: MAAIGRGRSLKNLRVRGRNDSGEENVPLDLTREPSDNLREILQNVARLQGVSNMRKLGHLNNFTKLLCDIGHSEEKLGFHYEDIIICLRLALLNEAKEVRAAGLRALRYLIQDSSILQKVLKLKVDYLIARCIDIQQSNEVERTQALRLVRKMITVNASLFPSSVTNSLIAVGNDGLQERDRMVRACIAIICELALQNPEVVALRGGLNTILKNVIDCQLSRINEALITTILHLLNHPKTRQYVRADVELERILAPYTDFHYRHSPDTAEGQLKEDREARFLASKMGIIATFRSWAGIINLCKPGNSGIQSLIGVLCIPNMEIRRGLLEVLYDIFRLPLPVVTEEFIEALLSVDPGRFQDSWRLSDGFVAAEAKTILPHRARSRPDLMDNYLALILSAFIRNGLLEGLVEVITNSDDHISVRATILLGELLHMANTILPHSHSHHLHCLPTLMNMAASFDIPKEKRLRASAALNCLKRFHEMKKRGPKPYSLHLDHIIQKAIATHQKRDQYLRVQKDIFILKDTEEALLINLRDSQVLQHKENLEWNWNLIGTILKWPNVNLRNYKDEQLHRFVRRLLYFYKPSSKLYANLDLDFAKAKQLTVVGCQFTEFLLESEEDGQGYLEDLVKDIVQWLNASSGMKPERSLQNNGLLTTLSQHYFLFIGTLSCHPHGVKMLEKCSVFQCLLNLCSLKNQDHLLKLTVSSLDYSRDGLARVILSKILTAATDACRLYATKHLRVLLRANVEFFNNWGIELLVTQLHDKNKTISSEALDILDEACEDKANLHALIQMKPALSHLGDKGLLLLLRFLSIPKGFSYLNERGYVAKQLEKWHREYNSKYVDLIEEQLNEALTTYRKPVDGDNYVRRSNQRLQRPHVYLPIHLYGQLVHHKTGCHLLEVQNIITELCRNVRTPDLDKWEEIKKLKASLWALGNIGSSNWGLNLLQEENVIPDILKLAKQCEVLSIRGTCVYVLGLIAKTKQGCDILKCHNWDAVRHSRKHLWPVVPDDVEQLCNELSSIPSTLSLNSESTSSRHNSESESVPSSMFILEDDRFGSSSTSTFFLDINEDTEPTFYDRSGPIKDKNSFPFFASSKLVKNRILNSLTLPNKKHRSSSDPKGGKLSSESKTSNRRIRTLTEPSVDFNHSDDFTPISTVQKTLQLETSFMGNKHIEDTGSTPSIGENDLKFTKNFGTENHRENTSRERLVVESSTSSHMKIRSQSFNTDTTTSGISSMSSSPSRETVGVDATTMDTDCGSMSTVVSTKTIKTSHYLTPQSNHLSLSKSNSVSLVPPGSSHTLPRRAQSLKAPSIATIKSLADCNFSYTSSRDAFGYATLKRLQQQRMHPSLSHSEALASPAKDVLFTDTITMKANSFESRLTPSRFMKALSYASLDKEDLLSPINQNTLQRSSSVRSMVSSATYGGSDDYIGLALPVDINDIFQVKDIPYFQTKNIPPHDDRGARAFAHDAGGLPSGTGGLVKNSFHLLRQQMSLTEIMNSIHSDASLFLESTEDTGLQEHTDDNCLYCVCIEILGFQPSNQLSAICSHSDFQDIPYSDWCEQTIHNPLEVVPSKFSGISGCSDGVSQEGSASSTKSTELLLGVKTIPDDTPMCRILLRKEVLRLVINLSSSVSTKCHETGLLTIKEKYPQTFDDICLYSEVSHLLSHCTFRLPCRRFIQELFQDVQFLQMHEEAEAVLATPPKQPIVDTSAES
UniProt Q01650: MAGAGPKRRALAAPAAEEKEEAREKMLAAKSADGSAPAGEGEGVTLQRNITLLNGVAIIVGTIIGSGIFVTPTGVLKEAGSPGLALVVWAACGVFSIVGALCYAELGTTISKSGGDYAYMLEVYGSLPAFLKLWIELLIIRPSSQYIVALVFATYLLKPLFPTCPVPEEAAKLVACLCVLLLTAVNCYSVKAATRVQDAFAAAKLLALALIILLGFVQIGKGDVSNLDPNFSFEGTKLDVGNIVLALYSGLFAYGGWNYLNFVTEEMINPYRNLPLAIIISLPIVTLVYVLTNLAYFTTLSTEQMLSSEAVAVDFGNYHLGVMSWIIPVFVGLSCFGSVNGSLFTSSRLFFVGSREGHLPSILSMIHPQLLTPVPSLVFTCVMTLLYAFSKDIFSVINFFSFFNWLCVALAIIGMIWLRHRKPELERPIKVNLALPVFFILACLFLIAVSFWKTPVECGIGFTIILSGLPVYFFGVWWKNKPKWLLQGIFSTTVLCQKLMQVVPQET

Legend:
[1] = target: Raptor (human (endogenous in HeLa)) (UniProt Q8N122); assay: co-IP; HeLa HA-LAT1 cell line, with or without 1 µM PMA for 6 h; 0.3% CHAPS lysis buffer; lysates immunoprecipitated with anti-Raptor or anti-Rictor antibody and protein G agarose, 4 °C; immunoblot
[2] = target: Rictor (rapamycin-insensitive companion of mTOR) (human (endogenous in HeLa)) (UniProt Q6R327); assay: as above

- binding [1]: no binding
- binding [2]: binds
Substance: HA-tagged L-type amino acid transporter 1 (LAT1), wild type (from UniProt Q01650 1-507)
